Experimental data: doi:10.1101/867192
These are yes or no findings as the source states them, for the method shown. For part of these data: Binding seen in cells or lysates may run through a third protein. Some entries that bind do so weakly or less than the wild type.

T1: Rsph3b (mouse) (UniProt Q9DA80)
T1 sequence: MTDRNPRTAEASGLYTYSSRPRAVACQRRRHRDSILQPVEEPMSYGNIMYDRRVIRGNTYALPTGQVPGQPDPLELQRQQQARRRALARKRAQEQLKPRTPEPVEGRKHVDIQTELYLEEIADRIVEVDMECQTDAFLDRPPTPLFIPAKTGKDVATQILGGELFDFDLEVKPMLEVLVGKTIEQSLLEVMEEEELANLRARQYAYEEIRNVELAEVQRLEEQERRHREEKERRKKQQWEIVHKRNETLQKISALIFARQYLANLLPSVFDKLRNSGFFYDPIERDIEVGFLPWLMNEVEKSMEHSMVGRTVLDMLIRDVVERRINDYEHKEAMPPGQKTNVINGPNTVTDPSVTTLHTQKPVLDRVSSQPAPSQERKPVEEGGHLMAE

T2: Rsph4a (mouse) (UniProt Q8BYM7)
T2 sequence: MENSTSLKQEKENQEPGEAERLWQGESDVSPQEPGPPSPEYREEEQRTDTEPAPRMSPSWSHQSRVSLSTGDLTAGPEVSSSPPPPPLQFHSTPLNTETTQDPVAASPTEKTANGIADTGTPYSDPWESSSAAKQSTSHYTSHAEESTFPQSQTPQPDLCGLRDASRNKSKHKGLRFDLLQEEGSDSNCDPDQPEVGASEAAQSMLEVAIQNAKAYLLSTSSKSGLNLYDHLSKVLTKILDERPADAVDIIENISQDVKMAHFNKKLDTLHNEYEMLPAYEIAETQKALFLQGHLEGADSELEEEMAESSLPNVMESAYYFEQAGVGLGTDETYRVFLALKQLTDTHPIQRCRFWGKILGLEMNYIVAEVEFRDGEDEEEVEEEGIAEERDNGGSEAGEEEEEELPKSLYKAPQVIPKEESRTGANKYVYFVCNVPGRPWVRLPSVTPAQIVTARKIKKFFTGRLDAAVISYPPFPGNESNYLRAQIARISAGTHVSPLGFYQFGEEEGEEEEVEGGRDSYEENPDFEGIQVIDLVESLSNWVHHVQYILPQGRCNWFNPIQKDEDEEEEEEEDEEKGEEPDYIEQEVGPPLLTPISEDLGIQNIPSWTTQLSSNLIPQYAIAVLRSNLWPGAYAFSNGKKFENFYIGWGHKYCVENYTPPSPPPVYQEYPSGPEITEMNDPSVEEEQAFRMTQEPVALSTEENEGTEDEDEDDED

T3: Rsph6a (mouse) (UniProt Q8CDR2)
T3 sequence: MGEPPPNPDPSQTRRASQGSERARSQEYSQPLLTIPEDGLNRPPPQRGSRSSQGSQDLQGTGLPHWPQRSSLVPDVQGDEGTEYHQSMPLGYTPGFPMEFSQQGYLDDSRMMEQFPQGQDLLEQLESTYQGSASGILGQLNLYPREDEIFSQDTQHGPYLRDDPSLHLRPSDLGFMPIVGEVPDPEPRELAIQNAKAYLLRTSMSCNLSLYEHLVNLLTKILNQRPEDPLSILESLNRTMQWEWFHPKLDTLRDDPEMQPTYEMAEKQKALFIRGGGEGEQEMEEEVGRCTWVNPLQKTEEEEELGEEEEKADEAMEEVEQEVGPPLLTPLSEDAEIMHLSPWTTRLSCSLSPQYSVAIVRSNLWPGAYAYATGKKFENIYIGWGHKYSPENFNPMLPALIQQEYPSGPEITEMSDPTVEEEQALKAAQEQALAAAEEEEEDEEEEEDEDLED


Tests used:
Rsph3b (mouse) [1] = target: T1, Rsph3b (mouse); assay: cross-linking
Rsph3b (mouse) [2] = target: T1, Rsph3b (mouse); assay: co-IP
Rsph3b (mouse) [3] = target: T1, Rsph3b (mouse); assay: co-IP + other: glycerol gradient sedimentation
Rsph3b (mouse) [4] = target: T1, Rsph3b (mouse); assay: cryo-EM structure
Rsph4a (mouse) [5] = target: T2, Rsph4a (mouse); assay: cross-linking
Rsph4a (mouse) [6] = target: T2, Rsph4a (mouse); assay: co-IP
Rsph6a (mouse) = target: T3, Rsph6a (mouse); assay: co-IP
Rsph4a (mouse) [7] = target: T2, Rsph4a (mouse); assay: cryo-EM structure

Row | Binder | binding (Rsph3b (mouse) [1]) | binding (Rsph3b (mouse) [2]) | binding (Rsph3b (mouse) [3]) | binding (Rsph3b (mouse) [4]) | binding (Rsph4a (mouse) [5]) | binding (Rsph4a (mouse) [6]) | binding (Rsph6a (mouse)) | binding (Rsph4a (mouse) [7])
1 | Rsph4a (protein, UniProt Q8BYM7 1-716) MENSTSLKQEKENQEPGEAERLWQGESDVSPQEPGPPSPEYREEEQRTDTEPAPRMSPSWSHQSRVSLSTGDLTAGPEVSSSPPPPPLQFHSTPLNTETTQDPVAASPTEKTANGIADTGTPYSDPWESSSAAKQSTSHYTSHAEESTFPQSQTPQPDLCGLRDASRNKSKHKGLRFDLLQEEGSDSNCDPDQPEVGASEAAQSMLEVAIQNAKAYLLSTSSKSGLNLYDHLSKVLTKILDERPADAVDIIENISQDVKMAHFNKKLDTLHNEYEMLPAYEIAETQKALFLQGHLEGADSELEEEMAESSLPNVMESAYYFEQAGVGLGTDETYRVFLALKQLTDTHPIQRCRFWGKILGLEMNYIVAEVEFRDGEDEEEVEEEGIAEERDNGGSEAGEEEEEELPKSLYKAPQVIPKEESRTGANKYVYFVCNVPGRPWVRLPSVTPAQIVTARKIKKFFTGRLDAAVISYPPFPGNESNYLRAQIARISAGTHVSPLGFYQFGEEEGEEEEVEGGRDSYEENPDFEGIQVIDLVESLSNWVHHVQYILPQGRCNWFNPIQKDEDEEEEEEEDEEKGEEPDYIEQEVGPPLLTPISEDLGIQNIPSWTTQLSSNLIPQYAIAVLRSNLWPGAYAFSNGKKFENFYIGWGHKYCVENYTPPSPPPVYQEYPSGPEITEMNDPSVEEEQAFRMTQEPVALSTEENEGTEDEDEDDED | binds | binds | binds | binds |  |  |  | 
2 | Rsph6a (protein, UniProt Q8CDR2-2 1-453) MGEPPPNPDPSQTRRASQGSERARSQEYSQPLLTIPEDGLNRPPPQRGSRSSQGSQDLQGTGLPHWPQRSSLVPDVQGDEGTEYHQSMPLGYTPGFPMEFSQQGYLDDSRMMEQFPQGQDLLEQLESTYQGSASGILGQLNLYPREDEIFSQDTQHGPYLRDDPSLHLRPSDLGFMPIVGEVPDPEPRELAIQNAKAYLLRTSMSCNLSLYEHLVNLLTKILNQRPEDPLSILESLNRTMQWEWFHPKLDTLRDDPEMQPTYEMAEKQKALFIRGGGEGEQEMEEEVGRCTWVNPLQKTEEEEELGEEEEKADEAMEEVEQEVGPPLLTPLSEDAEIMHLSPWTTRLSCSLSPQYSVAIVRSNLWPGAYAYATGKKFENIYIGWGHKYSPENFNPMLPALIQQEYPSGPEITEMSDPTVEEEQALKAAQEQALAAAEEEEEDEEEEEDEDLED |  | binds | binds weakly |  |  |  |  | 
3 | Rsph10b (protein, UniProt E9PYQ0 1-876) MVKEKKKADKKGDKSARSPSSISDNPEASKQDSNASKQEVAPSAVVPVVETPLKQAPKRDSVQMEQSEEETQYEEPILTKLIVESYEGEKVRGLYEGEGFAVFQGGNTYHGMFSEGLMHGQGTYIWADGLKYEGDFVKNIPMNHGVYTWPDGSTYEGEVTNGMRNGFGMFKCGTQPVSYIGHWCHGKRHGKGSIYYNQEGTSWYEGDWVYNIKKGWGIRCYKSGNIYEGQWENNMRHGEGRMRWLTTNEEYTGHWEKGIQNGFGTHTWFLKRIPNSQYPLRNEYIGEFVNGFRHGQGKFYYASGAMYEGEWASNKKQGRGRMTFKNGHVYEGLFSNDHIAQFFETEMDYSQSLDRWSDASQRSRQPRGSSVSAVREPETLRKLDGSESRSVLGTSIELDLTLLLDMYPEESQEEEKKQVEYAVLRNITELRRIYCFYSGLGCDHSLDNTFLMTKLHFWRFLKDCRFHHHNITLADMDRVLSVYNGIPIEEIHSPFRTILLRTFLNYLLQLAYYIHHKEFQNRSPSLFLCFTKLMSENIHPHACQVKGHLFSEQQRTLYSMNYIDKCWEIYTAYCRPNEAPPYELTMKMRYFLWMLKDFRMINKDLTATKFMTVIAEDNPFVYDGTDSNFELELVFLEFFEALLCFSLCCMFDQMTRSYLKVPYDDITTNRYGSTQTILNQSIHRSPSAITSHDSEVHFSSTKSSLDKIGALPDGKIRQSEPKLKKSLSEDKVSKMNFKTQGRGLVFMSPQGEKYEKPKDEQKEKLNIWVNNLYVFFVSVLFSAYKREEMLKEKVKENQLQEAELAQQRQIENEELEARLNILREEEARKQDFELDITVLKEPSEIPASQPLTPSPPKEDLASIQTSKASPGKKKKK |  |  | binds weakly |  |  |  |  | 
4 | Rsph1 (protein, UniProt Q8VIG3 1-301) MSDLGSEELEEEGENDLGEYEGERNEVGERHGHGKARLPNGDTYEGSYEFGKRHGQGTYKFKNGARYTGDYVKNKKHGQGTFIYPDGSRYEGEWADDQRHGQGVYYYVNNDTYTGEWFNHQRHGQGTYLYAETGSKYVGTWVHGQQEGAAELIHLNHRYQGKFMNKNPVGPGKYVFDIGCEQHGEYRLTDTERGEEEEEEETLVNIVPKWKALNITELALWTPTLSEEQPPPEGQGQEEPQGLTGVGDPSEDIQAEGFEGELEPRGADEDVDTFRQESQENSYDIDQGNLNFDEEPSDLQD |  |  | binds |  | binds | binds | binds | binds
5 | Rsph9 (protein, UniProt Q9D9V4 1-276) MDADSLLLSLELASGSGQGLSPDRRASLLTSLMLVKRDYRFARVLFWGRILGLVADYYIAQGLSEDQLAPRKTLYSLNCTEWSLLPPATEEMAMQISVVSGRFMGDPSHEYEHTELQKVNEGEKVFDEEVVVQIKEETRLVSIIDQIDKAVAIIPRGALFKTPFGVTHVNRTFEGLPLSEVRKLSSYFHFREAIDLKNKTLLEKSDLEPSLDFLDSLEYDIPRGSWSIQMERGNALVVLRSLLWPGLTFYHAPRTKNYGYIYVGTGEKNMDLPFML | binds |  | binds |  | binds | binds | binds | binds
